Values from PubChem BioAssay AID1159578 (Peter MacCallum Cancer Centre, 2015).

Screen: 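Knock-downs that alter how fast lymphatic endothelial cells migrate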 (primary screen)
Cell system: human lymphatic endothelial cells
Knock-down reagent: siRNA pool against human genes, 40 nM
Duration: 48 h after transfection
Detection: 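Cells stained with dye and imaged after a scratch; covered wound area and nuclei counted, duplicates averaged, migration set against mock wells and turned into a robust z-score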
Scale: migration robust z-score: higher = faster migration into the scratch; migration relative to mock: higher = more scratch area covered than mock; nuclei per well: higher = more cells in the well
Rule for the call: 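Migration changed when robust z exceeds 2 or falls below -2 and mean nuclei number is at least 3300; otherwise not called changed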
Calls: active = migration changed; inactive = no migration change, or too few cells
The deposit covers about 18,000 reagents; this is a part drawn at random. Over the whole deposit, about 1,030 (5.7%) got an active call. 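Inactive calls also include pools with fewer than 3300 nuclei, whose migration was not assessed.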 Raw values are not corrected between plates.

The opening 2 records, ahead of the listing:
| Target gene | migration robust z-score | migration class with cell-count check | migration relative to mock | nuclei per well, duplicate mean | call |
| --- | --- | --- | --- | --- | --- |
| ZSCAN32 | 0.49 | migration z between -2 and 2; enough cells | 1.01 | 4499 | inactive |
| ZC3H7A | 0.05 | migration z between -2 and 2; enough cells | 0.9 | 6020 | inactive |

The listing, repeating the preview:
| Target gene | migration robust z-score | migration class with cell-count check | migration relative to mock | nuclei per well, duplicate mean | call |
| --- | --- | --- | --- | --- | --- |
| ZSCAN32 | 0.49 | migration z between -2 and 2; enough cells | 1.01 | 4499 | inactive |
| ZC3H7A | 0.05 | migration z between -2 and 2; enough cells | 0.9 | 6020 | inactive |
| MRPL58 | -0.88 | migration z between -2 and 2; enough cells | 0.64 | 5404 | inactive |
| NXT1 | 0.31 | migration z between -2 and 2; enough cells | 0.86 | 5282 | inactive |
| CDRT15P3 | -0.84 | migration z between -2 and 2; enough cells | 0.66 | 4516 | inactive |
| FAM50A | 0.92 | migration z between -2 and 2; enough cells | 1.12 | 5832 | inactive |
| RAP1GAP | -1.29 | migration z between -2 and 2; enough cells | 0.55 | 5168 | inactive |
| ZNF74 | -0.06 | migration z between -2 and 2; enough cells | 0.87 | 6597 | inactive |
| CHD9 | 0.88 | migration z between -2 and 2; enough cells | 0.98 | 5446 | inactive |
| KHSRP | -0.05 | migration z between -2 and 2; enough cells | 0.8 | 5655 | inactive |
| LOX | 1.01 | migration z between -2 and 2; enough cells | 1 | 6173 | inactive |
| TMTC1 | 0 | migration z between -2 and 2; enough cells | 0.89 | 6272 | inactive |
| ZXDA | -1.14 | migration z between -2 and 2; enough cells | 0.59 | 5109 | inactive |
| CBLN2 | 1.56 | migration z between -2 and 2; enough cells | 1.28 | 5702 | inactive |
| CHFR | -0.77 | migration z between -2 and 2; enough cells | 0.66 | 7369 | inactive |
| DNAH1 | -1.17 | migration z between -2 and 2; enough cells | 0.58 | 5568 | inactive |
| ALDH16A1 | -0.52 | migration z between -2 and 2; enough cells | 0.7 | 5796 | inactive |
| DYNC1LI1 | 0.83 | migration z between -2 and 2; enough cells | 0.96 | 5663 | inactive |
| ANKAR | 0.25 | migration z between -2 and 2; enough cells | 0.94 | 5304 | inactive |
| GRAMD1A | 2.49 | migration z above 2; enough cells | 1.53 | 4852 | active |
| ARHGEF17 | 0.21 | migration z between -2 and 2; enough cells | 0.84 | 5787 | inactive |
| LRRD1 | -1.54 | migration z between -2 and 2; enough cells | 0.48 | 3358 | inactive |
| NANP | 0.2 | migration z between -2 and 2; enough cells | 0.84 | 5538 | inactive |
